Assay results as given in paper PMC13043812.
Results are given in words; binding and its absence hold for the method and conditions named. In cells and extracts the contact can be indirect. These calls come from enrichment with a bait or labelling near it, and not all partners need be listed.

By UniProt entry, the sequences of proteins in these tests, tags left out. Where a name states a change or a piece, a line headed by the entry shows the natural chain unless it says otherwise.
UniProt P96874: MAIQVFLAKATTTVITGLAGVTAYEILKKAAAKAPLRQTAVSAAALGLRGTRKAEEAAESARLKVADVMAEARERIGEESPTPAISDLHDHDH
UniProt P9WGV3: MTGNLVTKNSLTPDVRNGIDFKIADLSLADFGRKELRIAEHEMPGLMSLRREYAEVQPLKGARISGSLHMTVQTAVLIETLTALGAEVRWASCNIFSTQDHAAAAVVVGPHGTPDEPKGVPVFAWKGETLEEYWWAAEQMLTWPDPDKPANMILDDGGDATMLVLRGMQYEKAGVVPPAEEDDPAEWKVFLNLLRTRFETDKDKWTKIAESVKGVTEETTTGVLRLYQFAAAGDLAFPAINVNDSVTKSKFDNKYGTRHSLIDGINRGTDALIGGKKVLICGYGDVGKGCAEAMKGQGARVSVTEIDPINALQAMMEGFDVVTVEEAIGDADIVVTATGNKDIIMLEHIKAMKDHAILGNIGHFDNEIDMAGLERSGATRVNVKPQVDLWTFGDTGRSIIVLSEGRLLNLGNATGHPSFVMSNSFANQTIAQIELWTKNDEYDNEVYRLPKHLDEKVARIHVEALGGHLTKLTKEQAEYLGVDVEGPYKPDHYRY
UniProt P9WIP9: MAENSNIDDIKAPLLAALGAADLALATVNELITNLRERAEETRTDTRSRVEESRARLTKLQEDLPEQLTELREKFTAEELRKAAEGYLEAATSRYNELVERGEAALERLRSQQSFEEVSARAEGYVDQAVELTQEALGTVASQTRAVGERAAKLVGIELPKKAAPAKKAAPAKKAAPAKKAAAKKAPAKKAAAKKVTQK
UniProt P9WJ15: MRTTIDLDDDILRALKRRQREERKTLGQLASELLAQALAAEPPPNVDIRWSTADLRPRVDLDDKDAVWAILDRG
UniProt O05576: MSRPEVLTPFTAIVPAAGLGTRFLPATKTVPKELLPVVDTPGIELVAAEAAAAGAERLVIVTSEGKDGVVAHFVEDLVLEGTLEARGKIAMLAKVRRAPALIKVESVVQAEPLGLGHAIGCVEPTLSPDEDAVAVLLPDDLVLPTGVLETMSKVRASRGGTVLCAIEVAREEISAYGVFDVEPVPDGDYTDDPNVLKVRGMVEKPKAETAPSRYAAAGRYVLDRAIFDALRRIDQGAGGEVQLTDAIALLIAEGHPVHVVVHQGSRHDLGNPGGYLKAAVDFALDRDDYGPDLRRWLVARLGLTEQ
UniProt P9WNK5: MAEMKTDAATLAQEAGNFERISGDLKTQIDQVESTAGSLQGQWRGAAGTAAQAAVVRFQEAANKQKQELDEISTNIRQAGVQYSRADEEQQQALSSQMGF
UniProt P9WJD9: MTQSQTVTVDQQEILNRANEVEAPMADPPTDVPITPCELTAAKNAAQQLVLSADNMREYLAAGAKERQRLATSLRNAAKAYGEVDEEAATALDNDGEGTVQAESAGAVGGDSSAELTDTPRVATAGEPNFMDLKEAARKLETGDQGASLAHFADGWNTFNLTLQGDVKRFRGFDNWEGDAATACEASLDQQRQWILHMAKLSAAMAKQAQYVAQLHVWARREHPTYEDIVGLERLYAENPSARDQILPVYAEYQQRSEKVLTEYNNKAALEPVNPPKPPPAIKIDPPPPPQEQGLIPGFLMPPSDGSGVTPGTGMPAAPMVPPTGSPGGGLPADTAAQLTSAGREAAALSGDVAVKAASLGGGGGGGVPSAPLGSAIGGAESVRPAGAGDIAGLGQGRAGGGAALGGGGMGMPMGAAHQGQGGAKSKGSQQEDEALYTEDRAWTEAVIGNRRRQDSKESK
UniProt Q79FE1: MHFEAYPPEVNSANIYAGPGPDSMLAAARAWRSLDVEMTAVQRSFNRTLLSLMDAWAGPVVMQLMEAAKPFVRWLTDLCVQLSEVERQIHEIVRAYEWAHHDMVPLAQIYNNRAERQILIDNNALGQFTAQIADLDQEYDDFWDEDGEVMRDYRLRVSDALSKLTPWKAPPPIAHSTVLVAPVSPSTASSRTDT
UniProt P9WH95: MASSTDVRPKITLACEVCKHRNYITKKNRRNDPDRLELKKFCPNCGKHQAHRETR
UniProt P71622: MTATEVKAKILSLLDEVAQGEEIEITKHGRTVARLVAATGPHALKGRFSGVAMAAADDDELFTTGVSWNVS

B1: Rv1265 (protein, UniProt P9WM49 1-226)
chain: MVLARPDAVFAPARNRCHVSLPVNAMSLKMKVCNHVIMRHHHMHGRRYGRPGGWQQAQQPDASGAAEWFAGRLPEDWFDGDPTVIVDREEITVIGKLPGLESPEEESAARASGRVSRFRDETRPERMTIADEAQNRYGRKVSWGVEVGGERILFTHIAVPVMTRLKQPERQVLDTLVDAGVARSRSDALAWSVKLVGEHTEEWLAKLRTAMSAVDDLRAQGPDLPA
B2: Elongation factor P (protein, UniProt P9WNM3 1-187)
chain: MATTADFKNGLVLVIDGQLWTITEFQHVKPGKGPAFVRTKLKNVLSGKVVDKTFNAGVKVDTATVDRRDTTYLYRDGSDFVFMDSQDYEQHPLPEALVGDAARFLLEGMPVQVAFHNGVPLYIELPVTVELEVTHTEPGLQGDRSSAGTKPATLQTGAQINVPLFINTGDKLKVDSRDGSYLGRVNA
B3: Rv3898c (protein, UniProt O05447 1-110)
chain: MTGDQNPAPGPAPGVPIKVTPEILLQVLTTPPASGPAPFPAVPVDLPAPADIANGALFAAGNSGVPGDVESSGLEDLDRRAHAADAVQKFSANEADAAQQFQGVGAQAEA
B4: Rv3559c (protein, UniProt I6YCF0 1-262)
chain: MNLSVAPKEIAGHGLLDGKVVVVTAAAGTGIGSATARRALAEGADVVISDHHERRLGETAAELSALGLGRVEHVVCDVTSTAQVDALIDSTTARMGRLDVLVNNAGLGGQTPVADMTDDEWDRVLDVSLTSVFRATRAALRYFRDAPHGGVIVNNASVLGWRAQHSQSHYAAAKAGVMALTRCSAIEAAEYGVRINAVSPSIARHKFLDKTASAELLDRLAAGEAFGRAAEPWEVAATIAFLASDYSSYLTGEVISVSCQHP
B5: Rv2302 (protein, UniProt P9WLD5 1-80)
chain: MHAKVGDYLVVKGTTTERHDQHAEIIEVRSADGSPPYVVRWLVNGHETTVYPGSDAVVVTATEHAEAEKRAAARAGHAAT
B6: Rv2114 (protein, UniProt O33249 1-207)
chain: MSAPERVTGLSGQRYGEVLLVTPGEAGPQATVYNSFPLNDCPAELWSALDPQALATEHKAATALLNGPRYWLMNAIEKAPQGPPVTKTFGGIEMLQQATVLLSSMNPAPYTVSQVSRNTVFVFNAGEEVYELQDPKGQRWVMQTWSQVVDPNLSRADLPKLGERLNLPAGWSYHTRVLTSELRVDTTNREARVLQDDLTNSYSLVTA
B7: Rv0123 (protein, UniProt O07173 1-122)
chain: MTKKPRNPADYVIGDDVEVSDVDLKQEEVYVDGERLTDERVEQMASESLRLAREREANLIPGGKSLSGGSAHSPAVQVVVSKATHAKLKELARSRKMSVSKLLRPVLDEFVQRETGRILPRR
B8: Rv3357 (protein, UniProt P9WF25 1-91)
chain: MSISASEARQRLFPLIEQVNTDHQPVRITSRAGDAVLMSADDYDAWQETVYLLRSPENARRLMEAVARDKAGHSAFTKSVDELREMAGGEE
B9: ESX-1 secretion-associated protein EspJ (protein, UniProt P9WJC3 1-280)
chain: MAEPLAVDPTGLSAAAAKLAGLVFPQPPAPIAVSGTDSVVAAINETMPSIESLVSDGLPGVKAALTRTASNMNAAADVYAKTDQSLGTSLSQYAFGSSGEGLAGVASVGGQPSQATQLLSTPVSQVTTQLGETAAELAPRVVATVPQLVQLAPHAVQMSQNASPIAQTISQTAQQAAQSAQGGSGPMPAQLASAEKPATEQAEPVHEVTNDDQGDQGDVQPAEVVAAARDEGAGASPGQQPGGGVPAQAMDTGAGARPAASPLAAPVDPSTPAPSTTTTL
B10: Rv2857c (protein, UniProt I6Y1W3 1-258)
chain: MMDLSQRLAGRVAVITGGGSGIGLAAGRRMRAEGATIVVGDVDVEAGGAAADELSGLFVPTDVCDEDAVNGLFDGAAETYGRIDIAFNNAGISPPEDNLIENTELAAWQRVQDVNLKSVYLCCRAALRHMVLAGKGSIVNTASFVAVMGSATSQISYTASKGGVLAMSRELGVQFARQGIRVNALCPGPVNTPLLQELFAKNPERAARRMVHVPLGRFAEPDEIAAAVAFLASDDASFITASTFLVDGGISSAYVTPL
B11: TB9.4 (protein, UniProt Q6MWZ8 1-90)
chain: MEVKIGITDSPRELVFSSAQTPSEVEELVSNALRDDSGLLTLTDERGRRFLIHTARIAYVEIGVADARRVGFGVGVDAAAGSAGKVATSG
B12: Rv3788 (protein, UniProt P9WKW7 1-161)
chain: MSEKVESKGLADAARDHLAAELARLRQRRDRLEVEVKNDRGMIGDHGDAAEAIQRADELAILGDRINELDRRLRTGPTPWSGSETLPGGTEVTLRFPDGEVVTMHVISVVEETPVGREAETLTARSPLGQALAGHQPGDTVTYSTPQGPNQVQLLAVKLPS
B13: Transcription elongation factor GreA (protein, UniProt P9WMT9 1-164)
chain: MTDTQVTWLTQESHDRLKAELDQLIANRPVIAAEINDRREEGDLRENGGYHAAREEQGQQEARIRQLQDLLSNAKVGEAPKQSGVALPGSVVKVYYNGDKSDSETFLIATRQEGVSDGKLEVYSPNSPLGGALIDAKVGETRSYTVPNGSTVSVTLVSAEPYHS
B14: Rv0121c (protein, UniProt O07171 1-144)
chain: MGEFDPKLRFAQSPVARLATSTPDGTPHLVPVVFALGARRPAEATGADVIYTAVDAKRKTTQRLRRLANLEHNPRASVLVDSYADDWTQLWWVRADGVAAIHRDGEVMRAAYRLLRAKYAQYQSVPLNGPVIAIAVQRWASWHA
B15: Rv0250c (protein, UniProt O53672 1-97)
chain: MSTTAELAELHDLVGGLRRCVTALKARFGDNPATRRIVIDADRILTDIELLDTDVSELDLERAAVPQPSEKIAIPDTEYDREFWRDVDDEGVGGHRY
B16: Rv1566c (protein, UniProt O06624 29-230)
chain: AADPATRPVDYQQITDVVIARGLSQRGVPFSWAGGGISGPTRGTGTGINTVGFDASGLIQYAYAGAGLKLPRSSGQMYKVGQKVLPQQARKGDLIFYGPEGTQSVALYLGKGQMLEVGDVVQVSPVRTNGMTPYLVRVLGTQPTPVQQAPVQPAPVQQAPVQQAPVQQAPVQQAPVQQAPVQQAPVQQAPVQPPPFGTARSR
B17: Rv3474 (protein, UniProt P9WKH5 1-108)
chain: MSGGSSRRYPPELRERAVRMVAEIRGQHDSEWAAISEVARLLGVGCAETVRKWVRQAQVDAGARPGTTTEESAELKRLRRDNAELRRANAILKTASAFFAAELDRPAR
B18: Cold shock protein A (protein, UniProt P9WP75 1-67)
chain: MPQGTVKWFNAEKGFGFIAPEDGSADVFVHYTEIQGTGFRTLEENQKVEFEIGHSPKGPQATGVRSL
B19: Arginine repressor (protein, UniProt P9WPY9 1-170)
chain: MSRAKAAPVAGPEVAANRAGRQARIVAILSSAQVRSQNELAALLAAEGIEVTQATLSRDLEELGAVKLRGADGGTGIYVVPEDGSPVRGVSGGTDRMARLLGELLVSTDDSGNLAVLRTPPGAAHYLASAIDRAALPQVVGTIAGDDTILVVAREPTTGAQLAGMFENLR
B20: Rv3046c (protein, UniProt I6YF16 1-124)
chain: MTKTFSHPHFFRSVLRWLQVGYPEGVPGPDRVALLSLLRSTPLTEEQIGEVVRHFTENGSPAVADRVIDRDEIAEFISEVTHHDAGPENIQRVAGILAAAGWPLAGVDVGESESGSDRAPASQG
B21: Fumarate reductase flavoprotein subunit (protein, UniProt P9WN91 1-583)
chain: MTAQHNIVVIGGGGAGLRAAIAIAETNPHLDVAIVSKVYPMRSHTVSAEGGAAAVTGDDDSLDEHAHDTVSGGDWLCDQDAVEAFVAEAPKELVQLEHWGCPWSRKPDGRVAVRPFGGMKKLRTWFAADKTGFHLLHTLFQRLLTYSDVMRYDEWFATTLLVDDGRVCGLVAIELATGRIETILADAVILCTGGCGRVFPFTTNANIKTGDGMALAFRAGAPLKDMEFVQYHPTGLPFTGILITEAARAEGGWLLNKDGYRYLQDYDLGKPTPEPRLRSMELGPRDRLSQAFVHEHNKGRTVDTPYGPVVYLDLRHLGADLIDAKLPFVRELCRDYQHIDPVVELVPVRPVVHYMMGGVHTDINGATTLPGLYAAGETACVSINGANRLGSNSLPELLVFGARAGRAAADYAARHQKSDRGPSSAVRAQARTEALRLERELSRHGQGGERIADIRADMQATLESAAGIYRDGPTLTKAVEEIRVLQERFATAGIDDHSRTFNTELTALLELSGMLDVALAIVESGLRREESRGAHQRTDFPNRDDEHFLAHTLVHRESDGTLRVGYLPVTITRWPPGERVYGR

Target: PacL1 protein fused to an internal ALFA tag (M. tuberculosis) (UniProt P96874)
Test: proximity labelling

With B1 as the molecule, how does the binding read?
Its binding is “binds”.

Target: PacL1 protein fused to a C-terminal ALFA tag (M. tuberculosis) (UniProt P96874)
Test: proximity labelling

For “Adenosylhomocysteinase (from UniProt P9WGV3 1-495)”, which binding is on record?
Its binding is “binds”.

For “Iron-regulated heparin-binding hemagglutinin (from UniProt P9WIP9 1-199)”, which binding is on record?
The binding was “binds”.

Rv3697A (from UniProt P9WJ15 1-74) was tested. Which binding did it give?
The binding was “binds”.

With “UTP--glucose-1-phosphate uridylyltransferase (from UniProt O05576)” as the molecule, how does the binding read?
Its binding is “binds”.

Which binding does the source give for “EsxB (CFP-10), ESAT-6-like protein (from UniProt P9WNK5 1-100)” here?
Its binding is “binds”.

With Rv3881c (from UniProt P9WJD9 1-460) as the molecule, how does the binding read?
The binding was “binds”.

With PPE41 (from UniProt Q79FE1 1-194) as the molecule, how does the binding read?
The binding was “binds”.

Which binding does the source give for “Large ribosomal subunit protein bL33 (from UniProt P9WH95)” here?
Its binding is “binds”.

Which binding does the source give for Rv2830c (from UniProt P71622 1-71) here?
Its binding is “binds”.

Which binding does the source give for B1 here?
The binding was “binds”.

How did the binding turn out when B2 was run?
Its binding is “binds”.

For B3, which binding is on record?
The binding was “binds”.

For B4, which binding is on record?
Its binding is “binds”.

Which binding does the source give for B5 here?
The binding was “binds”.

Which binding does the source give for B6 here?
The binding was “binds”.

Which binding does the source give for B7 here?
Its binding is “binds”.

Which binding does the source give for B8 here?
The binding was “binds”.

How did the binding turn out when B9 was run?
The binding was “binds”.

Which binding does the source give for B10 here?
Its binding is “binds”.

Which binding does the source give for B11 here?
Its binding is “binds”.

With B12 as the molecule, how does the binding read?
The binding was “binds”.

With B13 as the molecule, how does the binding read?
Its binding is “binds”.

Which binding does the source give for B14 here?
Its binding is “binds”.

Which binding does the source give for B15 here?
Its binding is “binds”.

For B16, which binding is on record?
Its binding is “binds”.

B17 was tested. Which binding did it give?
The binding was “binds”.

Which binding does the source give for B18 here?
Its binding is “binds”.

With B19 as the molecule, how does the binding read?
Its binding is “binds”.

How did the binding turn out when B20 was run?
The binding was “binds”.

How did the binding turn out when B21 was run?
Its binding is “binds”.
